From US20090111753A1, “Nogo-A Polypeptide Fragments, Variant Nogo Receptor-1 Polypeptides, and Uses Thereof” (Yale University, priority 2004, published 2009)
Results are given in words; binding and its absence hold for the method and conditions named. Some results given as binding are weak or reduced against the parent protein; the word gives no strength.

How the values were obtained:
Assay in all cases: AP-ligand binding, COS-7
[1] = molecular target: T1, human NgR1 alanine mutant 227 (human) (UniProt Q9BZR6)
T1 sequence: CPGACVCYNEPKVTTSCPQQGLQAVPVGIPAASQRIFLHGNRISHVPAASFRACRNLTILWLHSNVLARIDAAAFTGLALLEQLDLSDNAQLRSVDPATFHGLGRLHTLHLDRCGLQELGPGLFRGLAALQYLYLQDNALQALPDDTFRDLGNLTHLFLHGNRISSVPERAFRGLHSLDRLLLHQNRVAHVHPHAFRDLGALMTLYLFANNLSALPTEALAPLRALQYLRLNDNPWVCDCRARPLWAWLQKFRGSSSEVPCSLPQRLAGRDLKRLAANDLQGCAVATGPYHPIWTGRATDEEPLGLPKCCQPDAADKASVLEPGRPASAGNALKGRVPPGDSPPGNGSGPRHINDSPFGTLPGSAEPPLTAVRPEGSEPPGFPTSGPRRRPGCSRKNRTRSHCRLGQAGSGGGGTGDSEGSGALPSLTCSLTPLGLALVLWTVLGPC

[2] = molecular target: T2, human NgR1 alanine mutant 108, 131 (human) (UniProt Q9BZR6)
T2 sequence: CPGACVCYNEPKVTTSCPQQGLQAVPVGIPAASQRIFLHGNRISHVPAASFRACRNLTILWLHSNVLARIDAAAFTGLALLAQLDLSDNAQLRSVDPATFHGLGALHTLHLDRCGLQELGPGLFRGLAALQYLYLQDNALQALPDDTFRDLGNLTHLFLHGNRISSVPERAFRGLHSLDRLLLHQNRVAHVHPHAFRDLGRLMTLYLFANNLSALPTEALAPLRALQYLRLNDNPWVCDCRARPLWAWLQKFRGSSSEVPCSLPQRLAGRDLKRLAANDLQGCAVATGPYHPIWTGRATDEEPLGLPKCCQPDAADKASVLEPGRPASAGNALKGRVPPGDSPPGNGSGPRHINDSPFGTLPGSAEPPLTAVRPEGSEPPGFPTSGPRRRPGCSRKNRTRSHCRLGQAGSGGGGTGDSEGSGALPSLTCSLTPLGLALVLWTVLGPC

[3] = molecular target: T3, human NgR1 alanine mutant 202, 205 (human) (UniProt Q9BZR6)
T3 sequence: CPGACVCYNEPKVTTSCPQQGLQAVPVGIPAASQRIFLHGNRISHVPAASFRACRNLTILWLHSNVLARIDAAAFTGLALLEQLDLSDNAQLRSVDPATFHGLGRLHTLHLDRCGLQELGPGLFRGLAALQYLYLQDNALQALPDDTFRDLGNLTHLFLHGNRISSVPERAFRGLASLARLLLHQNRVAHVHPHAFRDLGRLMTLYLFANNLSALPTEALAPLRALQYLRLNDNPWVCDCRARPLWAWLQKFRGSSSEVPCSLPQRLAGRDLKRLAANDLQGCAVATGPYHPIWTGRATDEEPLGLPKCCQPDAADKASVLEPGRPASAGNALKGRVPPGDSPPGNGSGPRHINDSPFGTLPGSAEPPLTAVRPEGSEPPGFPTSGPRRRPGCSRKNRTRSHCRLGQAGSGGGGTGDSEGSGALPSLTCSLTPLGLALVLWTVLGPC

[4] = molecular target: T4, human NgR1 alanine mutant 89, 90 (human) (UniProt Q9BZR6)
T4 sequence: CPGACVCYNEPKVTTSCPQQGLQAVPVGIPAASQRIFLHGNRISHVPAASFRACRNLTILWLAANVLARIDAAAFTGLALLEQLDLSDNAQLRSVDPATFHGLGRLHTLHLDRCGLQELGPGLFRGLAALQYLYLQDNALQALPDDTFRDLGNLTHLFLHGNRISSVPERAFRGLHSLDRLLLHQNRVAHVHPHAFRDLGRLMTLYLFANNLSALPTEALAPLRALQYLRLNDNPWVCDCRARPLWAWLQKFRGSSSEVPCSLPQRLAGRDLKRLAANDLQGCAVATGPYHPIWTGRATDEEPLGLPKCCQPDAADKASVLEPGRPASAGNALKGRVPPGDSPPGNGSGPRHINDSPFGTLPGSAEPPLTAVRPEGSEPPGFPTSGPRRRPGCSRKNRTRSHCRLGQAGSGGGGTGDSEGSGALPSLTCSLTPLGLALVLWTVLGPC

[5] = molecular target: T5, human NgR1 alanine mutant 114, 117 (human) (UniProt Q9BZR6)
T5 sequence: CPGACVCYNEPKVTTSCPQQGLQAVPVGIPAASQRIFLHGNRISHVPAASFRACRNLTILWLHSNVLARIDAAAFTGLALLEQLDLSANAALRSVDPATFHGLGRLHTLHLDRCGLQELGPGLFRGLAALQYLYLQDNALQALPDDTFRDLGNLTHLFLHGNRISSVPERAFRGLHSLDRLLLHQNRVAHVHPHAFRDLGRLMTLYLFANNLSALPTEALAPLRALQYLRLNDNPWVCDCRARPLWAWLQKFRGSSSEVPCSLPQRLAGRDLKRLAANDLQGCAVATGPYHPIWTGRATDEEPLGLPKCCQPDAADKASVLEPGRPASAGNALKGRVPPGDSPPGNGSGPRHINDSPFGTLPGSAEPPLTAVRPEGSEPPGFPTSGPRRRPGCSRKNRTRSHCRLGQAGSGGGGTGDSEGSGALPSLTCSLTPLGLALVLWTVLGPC

[6] = molecular target: T6, human NgR1 alanine mutant 176 (human) (UniProt Q9BZR6)
T6 sequence: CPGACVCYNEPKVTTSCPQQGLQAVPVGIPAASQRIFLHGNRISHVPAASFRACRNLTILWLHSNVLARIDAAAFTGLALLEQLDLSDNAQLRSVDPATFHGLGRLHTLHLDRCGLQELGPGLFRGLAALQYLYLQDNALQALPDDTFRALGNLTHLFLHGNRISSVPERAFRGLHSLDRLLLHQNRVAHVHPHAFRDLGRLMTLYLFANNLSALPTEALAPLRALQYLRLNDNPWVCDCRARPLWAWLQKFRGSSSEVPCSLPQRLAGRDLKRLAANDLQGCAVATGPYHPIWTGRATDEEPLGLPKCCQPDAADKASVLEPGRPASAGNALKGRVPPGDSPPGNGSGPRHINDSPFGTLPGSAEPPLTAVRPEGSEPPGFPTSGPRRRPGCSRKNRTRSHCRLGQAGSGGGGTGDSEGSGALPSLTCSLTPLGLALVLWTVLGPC

Measured: binding

B1: AP-Nogo-66 (ligand, UniProt Q9NQC3 1055-1120, looked up)
chain: RIYKGVIQAIQKSDEGHPFRAYLESEVAISEELVQKYSNSALGHVNCTIKELRRLFLVDDLVDSLK
notes: domain: Nogo-66; construct described elsewhere (Fournier 2001); also called AP-Ng66; Ng66; not shown: alkaline phosphatase (AP); construct described elsewhere
binds: all assays above

B2: AP-fused Amino-Nogo fragment B4C (a.a. 950-1018) (ligand)
chain: LLPPDVSALATQAEIESIVKPKVLVKEAEKKLPSDTEKEDRSPSAIFSAELSKTSVVDLLYWRDIKKTG
notes: also called AmNg B4C; AP-B4C; not shown: alkaline phosphatase (AP), vector pcAP6
binds: all assays above
